The text below walks through data of patent publication US9518088B2 (Indiana University Research and Technology Corporation, priority 2011, dated 2016).

The nature of this series: general procedure: hybrid (solid and solution phase) peptide synthesis; H-Gly-2ClTrt resin (loading 0.4 mmol/g; 0.71 mmol/g); EDC/HOAt (solution couplings); DEPBT/DIPEA; DIC/DMAP or DCC/DMAP for lyso-PC est. The note with it: late stage modification step.

HELM strings list residues between dots; [ac] is acetyl, [am] amide, other brackets name non-standard units.

The substance “PEPTIDE1{[ac].T.G.T.[X4_O_PC].G.Y}$$$$V2.0” gave a step yield of 79%.
To “PEPTIDE1{[ac].T.G.T.[X5_CH2_PC].G.Y}$$$$V2.0” belongs 73%.
